Consider 1 substance from paper PMC10177872.

Chains of the proteins cited; added tags and fusions are not shown. Lines headed by an entry give the natural chain unless they say otherwise; changes in a name come on top.
UniProt Q60710: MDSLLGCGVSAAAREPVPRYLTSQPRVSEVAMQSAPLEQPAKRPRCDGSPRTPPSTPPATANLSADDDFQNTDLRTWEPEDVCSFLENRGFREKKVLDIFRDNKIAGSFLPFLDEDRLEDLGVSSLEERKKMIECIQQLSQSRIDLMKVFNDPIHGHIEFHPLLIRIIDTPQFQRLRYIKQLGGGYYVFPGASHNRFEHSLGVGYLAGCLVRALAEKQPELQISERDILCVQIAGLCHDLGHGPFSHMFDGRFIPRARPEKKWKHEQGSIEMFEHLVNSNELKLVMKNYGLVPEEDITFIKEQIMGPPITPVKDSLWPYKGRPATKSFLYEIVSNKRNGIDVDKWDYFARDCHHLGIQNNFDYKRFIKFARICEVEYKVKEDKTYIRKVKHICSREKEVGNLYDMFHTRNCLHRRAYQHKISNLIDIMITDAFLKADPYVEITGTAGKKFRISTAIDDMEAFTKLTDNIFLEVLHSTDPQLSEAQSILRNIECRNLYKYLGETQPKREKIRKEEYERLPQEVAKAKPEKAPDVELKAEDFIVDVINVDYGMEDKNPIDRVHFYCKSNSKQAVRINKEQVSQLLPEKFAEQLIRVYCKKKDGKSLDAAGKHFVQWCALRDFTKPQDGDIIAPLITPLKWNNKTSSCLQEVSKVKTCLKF
UniProt Q60932: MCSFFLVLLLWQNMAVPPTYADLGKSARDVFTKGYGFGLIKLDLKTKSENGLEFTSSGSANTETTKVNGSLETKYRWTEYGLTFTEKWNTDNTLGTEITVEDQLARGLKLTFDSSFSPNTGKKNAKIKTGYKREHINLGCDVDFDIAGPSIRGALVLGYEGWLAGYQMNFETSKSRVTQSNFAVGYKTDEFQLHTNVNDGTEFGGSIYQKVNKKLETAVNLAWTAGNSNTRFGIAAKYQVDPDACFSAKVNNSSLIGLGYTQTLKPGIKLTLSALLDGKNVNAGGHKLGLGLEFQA

These are yes or no findings as the source states them, for the method shown. In cells and extracts the contact can be indirect. Binding calls can cover weak binding; strength is not graded here.

The assay has as its target SAM and HD domain-containing deoxynucleoside triphosphate triphosphohydrolase 1 (SAMHD1) (mouse (endogenous in RAW264.7)) (UniProt Q60710). Description: co-IP; anti-SAMHD1 immunoprecipitation from lysates of wild-type RAW264.7 cells under normal conditions, IgG as isotype control; immunoblot of VDAC1, VDAC2 and SAMHD1.

On to “voltage-dependent anion channel-1 (VDAC1) (from UniProt Q60932)”, for which the binding entry is “binds”.
